Source: PubChem BioAssay AID1224830 (NIAID, 2016)
The whole screen tested about 18,000 reagents; shown is a random part of them. About 2,900 of them (16%) count as active. 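Calls are made per well; low scores hint the gene aids the LPS response, high scores that it dampens it.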 Repeated entries: four replicate wells of each siRNA pool.

Aim: 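Genes whose knock-down alters the TNF-alpha reporter response to LPS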 (primary screen)
Cells: human THP-1 monocytic leukaemia cells, TNF dual-luciferase reporter clone, PMA-differentiated to macrophage-like cells
Knock-down reagent: siRNA pool against human genes, 50 nM
Timing: LPS for 4 h, given about 3 days after siRNA transfection
Treatment: bacterial LPS (TLR4 ligand), 10 ng/ml
Detection: 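TNF firefly reporter luminescence divided by renilla, normalised to the plate median, then turned into a robust z-score for each replicate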
Direction: TNF reporter robust z-score: higher = stronger TNF reporter response to LPS
Rule for the call: 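Each well counts as active if its z-score is over 2.8 or under -1.5; controls are left without a call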

no.	gene symbol	TNF reporter robust z-score	activity call
1	PLAAT4	0.41	inactive
2	PLAAT4	1.29	inactive
3	PLAAT4	-1.18	inactive
4	PLAAT4	-0.17	inactive
5	SSR1	-0.85	inactive
6	SSR1	0.78	inactive
7	SSR1	0.76	inactive
8	SSR1	-0.36	inactive
9	RNF113B	-1.03	inactive
10	RNF113B	-0.82	inactive
11	RNF113B	0.97	inactive
12	RNF113B	-0.45	inactive
13	OR51B6	-0.25	inactive
14	OR51B6	0.09	inactive
15	OR51B6	-0.57	inactive
16	OR51B6	0.13	inactive
17	PRPF8	-0.49	inactive
18	PRPF8	0.28	inactive
19	PRPF8	-0.88	inactive
20	PRPF8	-1.34	inactive
21	RFC1	0.77	inactive
22	RFC1	1.12	inactive
23	RFC1	-0.23	inactive
24	RFC1	-0.17	inactive
25	TJP2	0.07	inactive
26	TJP2	1.52	inactive
27	TJP2	-0.56	inactive
28	TJP2	0.52	inactive
29	MOCS1	0.1	inactive
30	MOCS1	0.84	inactive
31	MOCS1	0.05	inactive
32	MOCS1	0.56	inactive
33	BRINP3	-1.43	inactive
34	BRINP3	-0.65	inactive
35	BRINP3	-0.41	inactive
36	BRINP3	-0.77	inactive
37	BAZ1A	-0.78	inactive
38	BAZ1A	-1.07	inactive
39	BAZ1A	-1.39	inactive
40	BAZ1A	-0.76	inactive
41	RUMY4	-0.47	inactive
42	RUMY4	-0.89	inactive
43	RUMY4	-1.16	inactive
44	RUMY4	0.64	inactive
45	CDR1	1.34	inactive
46	CDR1	1.26	inactive
47	CDR1	0.46	inactive
48	CDR1	0.14	inactive
49	SHBG	-0.6	inactive
50	SHBG	-0.14	inactive
51	SHBG	-0.26	inactive
52	SHBG	-0.36	inactive
53	TRIOBP	0.74	inactive
54	TRIOBP	0.81	inactive
55	TRIOBP	0.75	inactive
56	TRIOBP	0.22	inactive
57	POLR3F	-0.11	inactive
58	POLR3F	2.19	inactive
59	POLR3F	1.68	inactive
60	POLR3F	0.98	inactive
61	MRPL17	0.17	inactive
62	MRPL17	0.33	inactive
63	MRPL17	1.93	inactive
64	MRPL17	0.8	inactive
65	GPR37	-0.68	inactive
66	GPR37	1.38	inactive
67	GPR37	1.03	inactive
68	GPR37	-0.4	inactive
69	HLA-E		inactive
70	HLA-E	1.69	inactive
71	HLA-E	1.54	inactive
72	HLA-E	1.14	inactive
73	HLA-E	1.6	inactive
74	METTL2A	-0.87	inactive
75	METTL2A	-0.4	inactive
76	METTL2A	-0.97	inactive
77	METTL2A	0.83	inactive
78	NIP7	0.73	inactive
79	NIP7	-0.33	inactive
80	NIP7	0.21	inactive
81	NIP7	0.38	inactive
82	EFEMP2	0.02	inactive
83	EFEMP2	-0.79	inactive
84	EFEMP2	-0.24	inactive
85	EFEMP2	-0.28	inactive
86	RPS6KA4	-0.31	inactive
87	RPS6KA4	-0.79	inactive
88	RPS6KA4	-0.93	inactive
89	RPS6KA4	-1.45	inactive
90	EARS2	-0.63	inactive
91	EARS2	0	inactive
92	EARS2	-0.08	inactive
93	EARS2	0.37	inactive
94	INCENP	2.62	inactive
95	INCENP	-0.15	inactive
96	INCENP	-0.91	inactive
97	INCENP	-0.04	inactive
98	SLC7A5	-0.71	inactive
99	SLC7A5	-1.15	inactive
100	SLC7A5	-1.29	inactive
101	SLC7A5	-1.16	inactive
102	CHRFAM7A	2.93	active
103	CHRFAM7A	2.98	active
104	CHRFAM7A	0.36	inactive
105	CHRFAM7A	0.78	inactive
106	CDH22	-0.28	inactive
107	CDH22	0.69	inactive
108	CDH22	-0.01	inactive
109	CDH22	0.44	inactive
110	TMEM138	1.13	inactive
111	TMEM138	1.48	inactive
112	TMEM138	0.58	inactive
113	TMEM138	1.73	inactive
114	HOXB6	0.9	inactive
115	HOXB6	1.2	inactive
116	HOXB6	1.18	inactive
117	HOXB6	1.84	inactive
118	MB	-0.67	inactive
119	MB	-0.44	inactive
120	MB	-0.38	inactive
121	MB	0.13	inactive
122	TEX11	-1.03	inactive
123	TEX11	-0.02	inactive
124	TEX11	-0.97	inactive
125	TEX11	-0.65	inactive
126	CCNL1	-0.11	inactive
127	CCNL1	0.39	inactive
128	CCNL1	1.99	inactive
129	CCNL1	0.26	inactive
130	ZDHHC19	1.19	inactive
131	ZDHHC19	0.73	inactive
132	ZDHHC19	0.39	inactive
133	ZDHHC19	1.63	inactive
134	NIPAL1	-0.7	inactive
135	NIPAL1	-1.29	inactive
136	NIPAL1	0.13	inactive
137	NIPAL1	-0.35	inactive
138	DPM2	0.13	inactive
139	DPM2	0.91	inactive
140	DPM2	0.79	inactive
141	DPM2	0.04	inactive
